Experimental data published in PubChem BioAssay AID504467 (National Center for Advancing Translational Sciences (NCATS), 2011).
Among all 330,000 compounds or so, about 7,700 (2.3%) were called active. The inconclusive results got no clear call from the source; some entries with a clear call stand among them for comparison. Calls follow the shape of the dose curve; as a rule, active = well fitted inhibition curve with a large enough effect; inconclusive = small, poorly fitted or top-dose-only effect, or effect the other way; inactive = flat fitted curve, though single readings scatter. A potency beside an inconclusive call is a rough fit, not a confirmed value.

assay: qHTS screen for small molecules that inhibit ELG1-dependent DNA repair in human embryonic kidney (HEK293T) cells expressing luciferase-tagged ELG1; settings: HEK293T ELG1-luciferase reporter, luminescence, 16 h, DNA damage induced by 5-fluorouridine; series mostly up to 46.1 µM; also: nearly all actives have a fitted effect of over 55% in size
In short: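 Overnight (16 hr) co-exposure of 2,000 cells/well to 5-fluorouridine and compound at 37 °C preceded detection. Luciferase was quantified via ONE-Glo luminescence; loss of signal denotes inhibition.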
Potency is read from the fitted curve at half-maximal effect.

SMILES | Potency
COc1ccc(CNC(=O)c2cc(COc3c(F)cccc3F)on2)cc1OC | inconclusive: 16.4 µM [inhibitor, single point]
CCOc1ccc(N=C(C)C2=C(O)c3ccccc3C2=O)cc1 | inconclusive: 8.2 µM [activator, partial curve]
COc1ccccc1C1(O)C(=O)Nc2ccc(C)cc21 (stereo not drawn) | inactive
CC1(C(=O)OCC(=O)c2c[nH]c3ccccc23)CC1(Cl)Cl (stereo not drawn) | inconclusive: 16.4 µM [activator, partial curve]
CCS(=O)(=O)N1Cc2ccccc2CC1C(=O)Nc1ccc(OC)c(OC)c1 (stereo not drawn) | inactive
CSc1nnc(NC(=O)c2ccc(S(=O)(=O)N(C)C)cc2)s1 | inconclusive: 3.66 µM [activator, full curve]
Cn1c(SCC(=O)N2c3ccccc3Sc3ccc(Cl)cc32)nnc1-c1ccco1 | active: 18.4 µM
COc1ccc(-c2nn(-c3ccccc3)cc2/C=N/Nc2cccc(C(=O)O)c2)cc1 | inconclusive: 20.6 µM [activator, partial curve]
COc1ccccc1N(CC(=O)NCCSCc1ccc(C)cc1)S(=O)(=O)c1ccccc1 | active: 16.4 µM
Cc1cc(C)n(C(=O)/C=C/c2cccs2)n1 | inconclusive: 20.6 µM [activator, single point]
c1ccc(Cn2nnc3c(N4CCc5ccccc54)ncnc32)cc1 | inconclusive: 14.6 µM [activator, partial curve]
COc1cc2c(cc1OC)[C@@H](NC(=O)CCc1ccccc1)[C@H](OCc1ccccc1)C2 | inconclusive: 29.1 µM [inhibitor, single point]
Cc1noc(C)c1COc1cccc(C(=O)OC(C)C(=O)Nc2ccc3c(c2)OCO3)c1 (stereo not drawn) | inconclusive: 0.103 µM [activator, full curve, poor fit]
COc1cccc(NC(=O)CN2C(=O)C(=O)N(C3CCCC3)C2=O)c1 | inactive
COc1ccc(/C=N/NC(=O)C(=O)N2CCCC2)cc1 | inconclusive: 25.9 µM [activator, single point]
O=C(OCc1cccc2ccccc12)c1ccc2c(=O)[nH]c(CN3CCOCC3)nc2c1 | inconclusive: 23.1 µM [inhibitor, single point]
O=C(Nc1ccc(S(=O)(=O)N2CCOCC2)cc1)c1ccc(Br)o1 | inactive
CC1(C)Cc2nc3sc4c(SCC(=O)O)ncnc4c3cc2CO1 | inconclusive: 20.6 µM [activator, partial curve]
CCOc1ccccc1NC(=O)CSc1nnc(-c2cnccn2)n1CC | inconclusive: 32.6 µM [inhibitor, partial curve, poor fit]
COc1ccc(-c2oc3c(OC)c(OC)c(OC)c(O)c3c(=O)c2OC)cc1OC | active: 11.6 µM
Cc1ccc2nc(-c3ccc(O)cc3)oc2c1 | inconclusive: 14.6 µM [activator, partial curve, poor fit]
Cc1cccc(C)c1NC(=O)Cn1cc(C=O)c2ccccc21 | inconclusive: 11.2 µM [inhibitor, partial curve, poor fit]
CCOc1ccc(-n2c(C)c(C(C)=O)c3cc(OC(C)=O)ccc32)cc1 | active: 6.51 µM

SMILES | Potency
CCOC(=O)Cc1csc(NC(=O)CSc2nc(=O)[nH]c3c2CCCC3)n1 | inactive
N#Cc1nc(-c2cccs2)oc1NCCc1ccccc1 | inconclusive: 20.6 µM [activator, partial curve]
Oc1ccc(CNc2ccc(F)cc2)c2cccnc12 | inconclusive: 32.6 µM [activator, partial curve, poor fit]
COc1ccc(-n2cc(-c3ccc(Cl)cc3)[nH]c2=S)cc1 | inconclusive: 4.61 µM [activator, full curve]
O=C(CN1CCN(CC(=O)Nc2ccc(Cl)cc2)CC1)Nc1ccc(F)cc1 | inactive
CCN(CC(=O)Nc1cc(Cl)ccc1-n1cncn1)Cc1nc2ccccc2c(=O)[nH]1 | active: 8.2 µM
CN(C)C(=O)COc1ccc2cc(-c3ccccc3)c(=O)oc2c1 | inconclusive: 10.3 µM [activator, partial curve]
O=C(NC1CCCCCC1)c1ccc(OCC2CCCO2)cc1 (stereo not drawn) | inconclusive: 14.6 µM [activator, partial curve]
CCCCc1c(C)c(C#N)c2[nH]c3ccccc3n2c1=O | inconclusive: 20.6 µM [inhibitor, single point]
O=C(CCN1C(=O)/C(=C/c2ccccc2Cl)SC1=S)Nc1ccccn1 | inactive
CN(C(=O)c1ccno1)c1nnc(-c2ccccn2)s1 | inconclusive: 18.4 µM [activator, single point]
CCN(CC)c1ccc(/C=N/N2CCOCC2)cc1 | inconclusive: 6.51 µM [activator, partial curve]
COc1ccccc1CNC(=O)COC(=O)c1ncc(Cl)c(Cl)c1Cl | inactive
CC1CN(S(=O)(=O)c2ccc(C(=O)Nc3ccc(S(=O)(=O)N4CCOCC4)cc3)cc2)CC(C)O1 (stereo not drawn) | active: 8.2 µM
Cc1ccc2nc(NC(=O)c3ccc(Br)o3)sc2c1 | inconclusive: 4.11 µM [activator, partial curve]
COc1ccc(NC(=O)CN(C)C(=O)CNC(=O)c2ccc(C)s2)cc1 | inconclusive: 29.1 µM [activator, partial curve, poor fit]
CCn1c(SCc2ccccc2Cl)nc2ccccc21 | inconclusive: 18.4 µM [activator, single point]
C[C@@]12C(=O)OC(=O)[C@]1(C)C1CCC2O1 | inconclusive: 10 µM [inhibitor, partial curve, poor fit]
O=C(N/N=C/c1ccccc1[N+](=O)[O-])c1cccs1 | inconclusive: 11.6 µM [activator, partial curve]
Cc1ccc2c(c1)CCCN2C(=O)CCc1nc2ccccc2c(=O)[nH]1 | inconclusive: 0.517 µM [inhibitor, partial curve, poor fit]
Cc1nc([N+](=O)[O-])c(Br)n1CC(=O)c1ccc2ccccc2c1 | inconclusive: 32.6 µM [activator, partial curve, poor fit]
CC(C)(C)NC(=O)NC(=O)COC(=O)CCC1CCCC1 | inactive
CCOC(=O)C1NC(=O)CC1c1ccccc1 (stereo not drawn) | inconclusive: 0.146 µM [inhibitor, partial curve, poor fit]

SMILES | Potency
N#Cc1cc(-c2ccccc2)cnc1Sc1ccc(Cl)cc1 | inconclusive: 5.8 µM [inhibitor, single point]
CSc1nc2ccc(NC(=O)c3ccco3)cc2s1 | inconclusive: 3.26 µM [activator, full curve]
CCN(CC)C(=O)[C@H]1CC(CC(=O)NCc2cccc(C(F)(F)F)c2)C(=O)N2CCc3c([nH]c4ccc(OC)cc34)[C@]12C (stereo partly drawn) | inactive
COc1cccc(NC(=S)Nc2ccc(F)cc2)c1 | inactive
Cc1cc(C(F)(F)Cl)n2ncc(-c3ccccn3)c2n1 | inactive
O=C(CCSc1ccccc1)N1CCN(c2ccccc2)CC1 | inconclusive: 20.6 µM [activator, partial curve]
COc1ccc(NC(=O)Nc2ccc(F)c(Cl)c2)cc1 | inconclusive: 2.59 µM [activator, partial curve]
COc1ccc(CN(C)C(=O)COC(=O)c2c(C)nn(-c3ccc(F)cc3)c2Cl)cc1 | active: 13 µM
O=C1C=C(Nc2ccccc2O)c2ccccc2C1=O | inconclusive: 20.6 µM [inhibitor, single point]
COc1cccc(CN2CCC(C(=O)Nc3ccc(Oc4cccnc4)cc3)CC2)c1 | inconclusive: 23.1 µM [inhibitor, partial curve]
Cc1noc(C)c1C(=O)OC(C)C(=O)NC(C)c1ccc(Cl)cc1Cl (stereo not drawn) | inconclusive: 20.6 µM [inhibitor, single point]
O=C(Cn1nnc(-c2ccccc2Cl)n1)N/N=C/c1ccc(-c2cccc(Cl)c2)o1 | inconclusive: 29.1 µM [activator, partial curve, poor fit]
Cc1ccc(C(=O)CCC(=O)Nc2ncccc2O)cc1 | inconclusive: 14.6 µM [activator, partial curve]
COc1ccc(-c2nc3c(c4nnc(SC(C)C(=O)Nc5ccccc5)n24)COC(C)(C)C3)cc1 (stereo not drawn) | inconclusive: 29.1 µM [inhibitor, single point]
COC(=O)c1ccc(N=c2sc(C(=O)OC)cc(=O)n2C)cc1 | inconclusive: 32.6 µM [activator, partial curve, poor fit]
COc1ccc(CCNc2cc(C)nc3c(-c4ccc(Cl)cc4)cnn23)cc1OC | inconclusive: 1.84 µM [inhibitor, partial curve, poor fit]
O=C(NCCc1c[nH]c2ccccc12)c1cncc(Br)c1 | inconclusive: 14.6 µM [inhibitor, partial curve, poor fit]
O=C(NCCc1ccccc1F)c1cccc2cccnc12 | inconclusive: 23.1 µM [activator, partial curve]
CCc1cc2c(COC(=O)c3cccc(NS(C)(=O)=O)c3)cc(=O)oc2cc1O | inconclusive: 32.6 µM [inhibitor, single point]
COc1cccc(NC(=O)N2CCCC2C(=O)NCc2ccc(Cl)cc2)c1 (stereo not drawn) | inactive
CCOC(=O)C1CCCN(C(=O)c2cccc(S(=O)(=O)N3CC(C)OC(C)C3)c2)C1 (stereo not drawn) | inconclusive: 29.1 µM [inhibitor, single point]
CCN(CC(=O)Nc1c(F)cccc1F)C(=O)c1ccc(C(=O)c2ccccc2)cc1 | inactive

3 records drawn at random from the list so far:
SMILES | Potency
CCn1c(SCc2ccccc2Cl)nc2ccccc21 | inconclusive: 18.4 µM [activator, single point]
CC1(C(=O)OCC(=O)c2c[nH]c3ccccc23)CC1(Cl)Cl (stereo not drawn) | inconclusive: 16.4 µM [activator, partial curve]
O=C(NCCc1ccccc1F)c1cccc2cccnc12 | inconclusive: 23.1 µM [activator, partial curve]
